PubChem BioAssay AID1259286 – Sanger Institute | 2017

Aim: 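Kinase knock-downs that reduce colorectal cancer cell viability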 (primary screen)
Cell system: NCI-H630 human colorectal cancer cells
Reagent: siRNA pool against human genes
Treatment: anchor drugs BYL719 at 1 µM, cetuximab at 5 µg/ml or trametinib at 10 nM, or DMSO vehicle alone; exposure time not given
Detection: 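Replicate-averaged viability as a fraction of non-targeting control, knock-down-alone robust z-score, and per-drug synergy scores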
Scale: viability z-score, knock-down alone: higher = more viable cells, weaker knock-down effect; viability vs control, knock-down alone: higher = more viable cells; synergy score with trametinib: higher = stronger synergistic killing with trametinib; synergy score with BYL719: higher = stronger synergistic killing with BYL719; synergy score with cetuximab: higher = stronger synergistic killing with cetuximab
Active means: 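a gene is called essential when its knock-down-alone viability robust z-score is below -3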
Meaning of the calls: active = essential when knocked down alone; inactive = not essential alone
In all, the deposit lists 794 reagents; this is a part drawn at random. In the full data, 17 (2.1%) got an active call. 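Calls use knock-down alone only; synergy above 0.15 marked separately; viability seems capped at control level; exposure time not given.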 Entries without a mark were called inactive. Not given: the amount of reagent, the time to read-out.

target | viability z-score, knock-down alone | viability vs control, knock-down alone (fraction of control) | synergy score with trametinib | synergy score with BYL719 | synergy score with cetuximab
TRIB1 (GeneID 10221) | 0.464 | 1 | -0.0479 | -0.0514 | 0.033
TNNI3K (GeneID 51086) | 0.464 | 1 | -0.0479 | -0.0633 | -0.11
TTBK1 (GeneID 84630) | 0.464 | 1 | -0.0479 | 0.015 | 0.121
PDGFRB (GeneID 5159) | -2.01 | 0.906 | -0.00153 | 0.0979 | 0.0986
CDK6 (GeneID 1021) | 0.464 | 1 | -0.0479 | 0.00326 | 0.111
ALK (GeneID 238) | 0.464 | 1 | -0.0331 | 0.018 | 0.0353
MINK1 (GeneID 50488) | 0.258 | 0.992 | 0.00578 | 0.0413 | -0.0142
MAP4K1 (GeneID 11184) | 0.239 | 0.991 | 0.0243 | 0.0778 | 0.124
PASK (GeneID 23178) | -1.41 | 0.929 | -0.0669 | -0.0814 | 0.00896
RBM10 (GeneID 8241) | 0.464 | 1 | 0.0363 | 0.102 | 0.198
CDK11A (GeneID 728642) | -2.06 | 0.905 | -0.0324 | -0.0928 | -0.0618
BRD3 (GeneID 8019) | 0.464 | 1 | -0.0479 | -0.0313 | 0.0128
MAPK15 (GeneID 225689) | 0.464 | 1 | -0.0479 | -0.0184 | -0.0294
VRK3 (GeneID 51231) | 0.464 | 1 | -0.0479 | -0.0814 | -0.046
SPEG (GeneID 10290) | 0.0742 | 0.985 | -0.0619 | -0.00666 | -0.112
GK (GeneID 2710) | 0.464 | 1 | 0.01 | -0.0814 | 0.0133
RSKR (GeneID 124923) | 0.464 | 1 | -0.0479 | 0.0323 | 0.149
AURKC (GeneID 6795) | 0.464 | 1 | -0.0479 | -0.0814 | 0.0238
CDK5R1 (GeneID 8851) | -0.941 | 0.947 | -0.0975 | -0.0853 | -0.0176
GSK3B (GeneID 2932) | 0.464 | 1 | -0.0479 | -0.0814 | -0.121
ROCK2 (GeneID 9475) | -0.613 | 0.959 | 0.00255 | -0.119 | 0.0211
COASY (GeneID 80347) | -0.0701 | 0.98 | 0.00622 | 0.0927 | 0.0763
PFKM (GeneID 5213) | 0.464 | 1 | -0.0429 | -0.0232 | 0.0844
STAG2 (GeneID 10735) | 0.464 | 1 | -0.0479 | -0.0814 | -0.00178
EPHA6 (GeneID 285220) | 0.464 | 1 | -0.0304 | 0.104 | 0.133
PSKH2 (GeneID 85481) | 0.0989 | 0.986 | -0.0336 | -0.0278 | -0.00909
RBKS (GeneID 64080) | 0.464 | 1 | -0.0479 | -0.0192 | 0.00572
NR2F2 (GeneID 7026) | 0.464 | 1 | -0.0185 | 0.0803 | 0.0495
NR4A2 (GeneID 4929) | 0.464 | 1 | 0.0589 | 0.109 | 0.0836
STK16 (GeneID 8576) | 0.464 | 1 | -0.0479 | -0.0028 | -0.0144
PSKH1 (GeneID 5681) | 0.464 | 1 | -0.0414 | 0.077 | 0.00549
NADK (GeneID 65220) | 0.464 | 1 | -0.0479 | -0.037 | -0.121
BLK (GeneID 640) | 0.107 | 0.987 | -0.0607 | -0.0938 | 0.0553
SPHK2 (GeneID 56848) | 0.464 | 1 | -0.0479 | 0.00578 | 0.0449
NUCKS1 (GeneID 64710) | 0.464 | 1 | -0.0479 | -0.0309 | 0.0727
SIK3 (GeneID 23387) | 0.464 | 1 | -0.0479 | -0.0574 | -0.0377
SF3B1 (GeneID 23451) | -3.07 (active) | 0.866 | -0.00829 | 0.1 | 0.095
ADPGK (GeneID 83440) | -0.693 | 0.956 | 0.000805 | -0.0196 | -0.063
SRPK3 (GeneID 26576) | 0.464 | 1 | -0.0102 | -0.0178 | 0.00114
TSSK2 (GeneID 23617) | -0.314 | 0.971 | -0.0268 | -0.103 | 0.0277
STK11 (GeneID 6794) | -0.664 | 0.957 | -0.0414 | -0.052 | 0.0143
TSSK6 (GeneID 83983) | 0.464 | 1 | 0.0395 | 0.0868 | 0.0898
ITK (GeneID 3702) | -2.07 | 0.904 | -0.139 | -0.169 | -0.145
CHD4 (GeneID 1108) | -0.967 | 0.946 | -0.0994 | 0.00162 | 0.0595
MAP2K3 (GeneID 5606) | 0.464 | 1 | -0.0479 | 0.0934 | 0.0439
DUSP21 (GeneID 63904) | 0.464 | 1 | -0.0391 | -0.0814 | 0.0529
PLK4 (GeneID 10733) | -2.26 | 0.897 | -0.0869 | -0.123 | 0.0477
TYK2 (GeneID 7297) | 0.464 | 1 | -0.0273 | -0.0814 | 0.059
MAP4K3 (GeneID 8491) | 0.211 | 0.99 | -0.00249 | -0.0902 | 0.0606
GRK1 (GeneID 6011) | 0.464 | 1 | -0.0479 | -0.0293 | 0.0525

Hits, of those listed so far:
target | viability z-score, knock-down alone | viability vs control, knock-down alone (fraction of control) | synergy score with trametinib | synergy score with BYL719 | synergy score with cetuximab
SF3B1 (GeneID 23451) | -3.07 (active) | 0.866 | -0.00829 | 0.1 | 0.095
